Our source for the median seed-adjusted z-score values is PubChem BioAssay AID1347426 (Functional Genomics Laboratory (NCATS/FGL), 2020).

The campaign covered roughly 31,000 sequences. About 1,400 (4.5%) were called active.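 How the source made its calls: active means median seed-adjusted z-score above 1 or below -1; inactive means the rest.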 The list shows a part of the results.

This assay can be described thus: Novel Modifiers of Survival Motor Neuron (SMN) Protein: Gene Identification via Genome-wide siRNA Screen.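 Further: luminescence tracks full-length SMN protein made from the SMN2 reporter.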 Particulars: HEK293T SMN2-luciferase reporter, siRNA knockdown, 72 h; actives lie on both sides. An outline of the steps: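 Luciferase signal, proportional to full-length SMN made from an SMN2 cDNA reporter in stable HEK293T cells, was read 72 h after siRNA reverse transfection. Values were expressed as MAD scores after non-targeting-control normalization and log10 conversion; seed analysis flagged off-targets.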
For the sequence GCCCAGUUGCUUAACGAAUTT against ACVR2A, the median seed-adjusted z-score is inactive: -0.22.
In the case of CGGGUCGUAUUAUCACCAUTT against FOXF2 it was inactive: -0.608; in that of CCGCAAUAAGAAUCGAUAUTT against PTPRT, inactive: -0.323.
For the sequence GGUUGACCUCAGCUUCGGATT against ATP5D, the median seed-adjusted z-score was inactive: 0.
Consider ACACUAGUCCACCACCAAATT against TNP2, for which the median seed-adjusted z-score is inactive: -0.346.
Then GGACUUGAGUCUGAGUUCATT against PAOX, with inactive: 0; and GGAAAACCUUUAGCUACAATT against ZNF551, with inactive: -0.171.
In the case of CCAAAUUUGUAAACGGUGUTT against SLC28A3 it was inactive: -0.107.
Then GUUACAAACUGUUUACAUATT against RCBTB1, with inactive: 0.
Take GGAGAGAUUCGAGUAGGAATT against MTA1: the median seed-adjusted z-score was inactive: 0.407.
Then UCCAUAUUCUGAUCAACAATT against RDH12, with inactive: -0.0267.
In the case of GGAAAAUCUUCAGUAUGAATT against ZNF157 it was inactive: 0.137; in that of CCAUGAACAUCUUAGUCAATT against USP34, inactive: 0.0665.
With GCUUAUUGCGGACAUCAUATT against CNGB3, the median seed-adjusted z-score was inactive: 0.226.
In the case of CUUAAACUCUGUGCUUGUATT against ARPC4 it was inactive: -0.211; in that of GAUUAAAGACUACAUCAUUTT against SLC26A9, inactive: 0.223.
Then AGAUCGCUGUCAAAACCCUTT against GFOD1, with inactive: 0.923; and GCAGGUCCGAGAUAUGAAUTT against MOBKL1B, with inactive: 0.31; and GCAAGUAACUGAAUCCAUUTT against TACSTD2, with inactive: -0.681.
In the case of GGUUCACGGCUAAAGCAAUTT against DGCR8 it was inactive: -0.266.
Regarding GGGUACAUAUGCAACAGUATT against PCTK2, the median seed-adjusted z-score was inactive: -0.497.
In the case of GAAAUGUGCUCACUCUGUUTT against SVOP it was inactive: 0; in that of CAACAAGUUUCACACGUUCTT against CALCA, inactive: 0.0802.
Then GGAGCAGUUUGAAUGUCCATT against HR, with inactive: 0.751.
Then GCAAGACCUAAGCAAACUATT against BXDC1, with inactive: 0.173; and AGAGGUUACUUCAAAGACATT against MED31, with inactive: -0.267.
For GCGAAGAUUUGAGAAACGATT against VPS4B, the median seed-adjusted z-score is inactive: -0.0992.
In the case of GGAGGAUUGGAUUUCCUGATT against CD1B it was inactive: -0.407.
Take GACCGAAAAUCGCAAACCATT against DOCK11: the median seed-adjusted z-score is inactive: 0.293.
Then CAUAUUGGUUGGUCUCGAATT against MBTD1, with inactive: 0.0649; and CCUAUUGACCCUGCAGUUATT against SPRR1A, with inactive: -0.0536.
In the case of GCAUCUCAGUACGAUGAAATT against DDX27 it was inactive: -0.131; in that of CCUGCACUCGGGAACAGAATT against TNFRSF1B, inactive: -0.483.
With CAUCUGAAGUCAUCACCAATT against PLA2G4F, the median seed-adjusted z-score was inactive: -0.0231.
Then CAAGUACUGUAAUCACCCATT against ATF2, with inactive: 0.424; and GGCCUCUCACUAUCUCGUATT against POLRMT, with inactive: 0.0812; and CCAGGAUGAUUUAGCUGAATT against SCIN, with inactive: 0.509.
Then GACUAUUUUUGUAUGCGAUTT against GNPDA2, with inactive: -0.422.
In the case of GGCUUAUUUGCAUAUCAUATT against SSH1 it was inactive: 0.209; in that of CCCAAGACGUUCACCGUGATT against NF2, inactive: -0.543; in that of UCACAGUCACAUACAGAGATT against SNRPD3, active: -2.69.
For the sequence GCAGGGACCAAGAACUAUATT against TARS, the median seed-adjusted z-score is inactive: 0.146.
For GAGAGACUCUGCAAGCUAUTT against DDX17, the median seed-adjusted z-score was inactive: 0.231.
Then CAAUGACCAUUGACGGAAUTT against ELAVL2, with inactive: -0.077; and GGAGCUCACUGACGAGAAUTT against POLR2C, with active: -2.95.
As for AACCUAUGCGUAUCCAGUATT against SNRPA, the median seed-adjusted z-score is active: -2.09.
In the case of AGACCUAGCAUGGACCAGATT against GUCY2E it was inactive: 0.61; in that of GGUUUUCGAAACUUACAUATT against PGR, inactive: -0.0249; in that of GGUUCUAUGAGGAUGAUGATT against NFKB2, inactive: -0.132.
Consider UGUGAUACCUCAAAGCACATT against NARF, for which the median seed-adjusted z-score is inactive: -0.346.
Then CAACAUUCCAUCACUAAUATT against NXN, with inactive: 0.175; and GGUACGUUUUUAUAUGGAATT against PTPLA, with inactive: 0.291.
As to GGAUCCAUUUUGAGGAUUATT against VIPR1, the median seed-adjusted z-score is inactive: 0.168.
Then CUCGCUACAUGAUCUAUGATT against NECAB1, with inactive: 0.0268; and CAAACUGCAAUGUACUUGATT against PDK1, with inactive: -0.00904; and GGAUGAUUGUGAUUCAUUUTT against SLC16A4, with inactive: 0.341.
Then CGUUCCUAAGCUACAAGAATT against TMPRSS9, with inactive: 0.106; and GGACGGUAAUAACGGAAGATT against FUBP3, with inactive: 0.108; and GCUCUUCUCCACACCGUCATT against CRCP, with inactive: 0.
Then GACUUUCUGCUGACUCAUATT against DGAT2L4, with inactive: 0.145.
As for CCAUCCGUCUUAGCAAGGATT against MYH14, the median seed-adjusted z-score was inactive: -0.307.
As to GAGCAUGAAUUGGUUUUAATT against GALNT11, the median seed-adjusted z-score is inactive: -0.259.
Regarding CACUUGAGGUUGAUCAAGATT against SNX16, the median seed-adjusted z-score was inactive: -0.111.
In the case of GCAUUAUGGUGUCCGCACATT against NR4A1 it was inactive: -0.207; in that of GAUUCGAAAUAGUAUUGUATT against ZNF44, inactive: 0.349.
Then GGUGGAAAGCGUAAAGAUATT against PDCD4, with inactive: -0.0842; and GGAGAAUUAUAGUCUCGCUTT against MTNR1A, with inactive: 0; and CCUCGAGCAUAUAAUCUAATT against SETDB2, with inactive: 0.417.
In the case of GAUAAUGAGUGGAGAAAGATT against VEGFC it was inactive: -0.41; in that of CCACCUUAACAGACCUCUATT against PPIA, inactive: 0.0169; in that of GAGAGAUUCCUUUUUCUUUTT against SLC25A26, inactive: 0.0213.
Take GGGUGGGUUACAUAGCACATT against CLDN19: the median seed-adjusted z-score was inactive: 0.
Then GCGAUGAAAUUGUCGUGUATT against MAP3K9, with inactive: -0.498.
Consider CGAGUACCUCCAUUCACUATT against PRKACB, for which the median seed-adjusted z-score was inactive: -0.258.
In the case of CAAUGUCAGUAAUCAGCAATT against ICK it was inactive: 0.638; in that of AGGUAGAUGUGACAGGAAATT against TRIM21, inactive: 0.524.
For GCAACUAAGACCUUCGUUATT against GRIA4, the median seed-adjusted z-score was inactive: 0.
Then CACUAUUCGGAAUCCACUATT against ADCYAP1R1, with inactive: 0.404; and CAACCUUCCUCGGACUAAUTT against SLC26A2, with active: -1.25.
In the case of GACCAAGCGCAAAACCAAATT against HOMEZ, the median seed-adjusted z-score is inactive: -0.0614.
For the sequence GCUAUCAGGUCAUAACCAATT against MYBPC2, the median seed-adjusted z-score was inactive: 0.18.
Then GAAUAUAUCUGUAUGAUCATT against DNAJC5G, with inactive: 0.0656; and AAGCUGAAGUGACGAUGAATT against CBR1, with inactive: -0.6; and CCAAGUUUUCCGUCAAAGATT against GNAT2, with inactive: 0.
Then GAACUUCAUAGUACAGCGATT against CTNNAL1, with inactive: 0.229; and GCCGAAUUCUUCACCUCUATT against P4HA2, with inactive: 0; and GGAGAGACUUUUUACAACUTT against CACNG6, with inactive: -0.0499.
For the sequence CAAACAACCCAUGACGAAATT against IL10RB, the median seed-adjusted z-score was inactive: 0.167.
Then CCAUGGACCGGGAUUAUCATT against JUB, with inactive: -0.0898; and GGAGUGAUUAUGUAUGAAATT against STK38L, with inactive: 0.079.
With CAAUCCUCAGUUCCGUUUATT against CAPN12, the median seed-adjusted z-score was inactive: 0.155.
Then ACAGAUUGGUGAACCUAAUTT against CA13, with inactive: -0.212.
Take AAGUCUCUGUGAGACAGUATT against ARRB2: the median seed-adjusted z-score was inactive: -0.153.
Then AACGGAGUCUUUGCACUUATT against POLE4, with inactive: -0.0404.
Then CCAUGCACCUCAUCGCUAUTT against MCF2L, with inactive: -0.624; and GAAUUGAGGAAUCAAUUGATT against MCM6, with inactive: 0.266.
Then GAAUUACUCGGUCAAUAUATT against PDGFD, with inactive: 0.366.
On to GGAGAGGUCCCAUCCUAUATT against DNAJC9, for which the median seed-adjusted z-score was inactive: 0.0545.
Then AGGUAAUAAUAGACGUGGATT against NUPL2, with inactive: 0.134.
On to CGUGGGAACUUUUACCCGATT against ATP9A, for which the median seed-adjusted z-score was inactive: 0.499.
In the case of CCGUCUAGAUGAACAACUATT against ZNF451 it was inactive: 0; in that of GGACAAUAGACUUUAGAGATT against NCALD, inactive: 0; in that of GACCUGAAAUCAGAACUAATT against ANXA5, inactive: 0.268.
In the case of GGGUUACCAGGUUCAUACATT against MDFI it was inactive: 0.279; in that of CCGAUACAAUCGCAUGUAATT against ATF7, inactive: 0.903; in that of CGGAGGUUUCUCAACCAUUTT against HNMT, inactive: 0.336.
With CCCUAAAGAGUGUCGAGUUTT against ACAD11, the median seed-adjusted z-score was inactive: -0.679.
Then GAGCUACUGGGAGGGUAAATT against GNG3, with inactive: -0.186.
